{
  "source": "paper PMC10163288",
  "binders": {"B1": {"name": "il10ra_site1_normal_mot_HHH_b2_06979_000000158_0001_42_57_H_._HHH_b1_03932_af2_0001_0000400024_0000001_0_af2pred_dldesign_0_af2pred (protein)", "chain": "SSSSSSKDLTEEAVALLREALELDDKEKRKELLDKALELAKKAGSKILVDAIEYLRKQLESSSSS"}, "B2": {"name": "il10ra_site1_sap_17_mot_HHH_b2_07145_000000158_0001_24_40_H_._069d1585ae11fb35a31570eb630733e4_0001_af2_0001_0000300005_0000001_0_0001 (protein)", "chain": "SSSSDEEVRELIEEAEELAERGDPERAIEVLQRALRLAFQEGDEELLQLIWELARKIGELVSSSS"}, "B3": {"name": "il10ra_site1_normal_mot_HHH_b2_02116_af2_000000165_0001_41_55_H_._HHH_b2_08065_af2_0001_0000200009_0000001_0_af2pred_0001 (protein)", "chain": "SSSSSDDERAVELLLRAAELAAEEGDPRLAEAALRLAEQIAKHGNNPELEEEVERVLRELSSSSS"}, "B4": {"name": "il10ra_site1_sap_20_mot_HHH_b1_05056_000000217_0001_1_20_H_._HHH_b1_04549_0001_0000200019_0000001_1_0001 (protein)", "chain": "SSSSSLEEQVRAAERFLRWLYEAGDPEAARRIAEAILEAVKKDGNEELFERLEEILEEINSSSSS"}, "B5": {"name": "il10ra_site1_sap_24_mot_HHH_b1_03094_000000294_0001_1_20_H_._HHH_b2_02427_0001_0000400035_0000001_0_0001_af2pred_0001 (protein)", "chain": "SEEEEVERMLRFLALAAGVKSVEVTTENGEVTVTVENVSPEARELIEAAVRFLRDRGLNVSFETR"}, "B6": {"name": "il10ra_site1_normal_mot_HHH_b2_00277_af2_000000172_0001_1_17_H_._HHH_eva_0065_0002_0000400034_0000001_0 (protein)", "chain": "DPEKEKLEEEIREVLERFEKGKIDPEEAKELLSRLAFKAARLGDDEAVELAIRAYAAIHQAEQRS"}, "B7": {"name": "il10ra_site1_sap_24_mot_HHH_b2_02497_000000220_0001_1_20_H_._HHH_b2_07522_0001_0000300052_0000001_0_0001 (protein)", "chain": "SSSSDEEEREVERLIEEAEELVEKGDHREAIRVIQRAVRIALRANNPELLQRLWELVQELASSSS"}, "B8": {"name": "il10ra_site1_normal_mot_HHH_b1_07097_af2_000000269_0001_1_16_H_._HHH_b2_00103_af2_0001_0000100006_0000001_0 (protein)", "chain": "SSSSSEESERAIELIRKAAKLHHEGNPEEAQELLEEALKIAEEGGNDIIVFTLEWLLERLSSSSS"}, "B9": {"name": "il10ra_site1_sap_22_mot_HHH_b1_06701_000000046_0001_23_39_H_._ems_3hC_1315_0002_0001_0000300020_0000001_0_0001 (protein)", "chain": "SSSSSDVEERAREIFEELEEALERRDADELYKLLRELIELAHEFNSEEVEELVHRIVKRFSSSSS"}, "B10": {"name": "il10ra_site1_sap_20_mot_HHH_b2_02386_000000054_0001_1_20_H_._HHH_b1_00963_af2_0001_0000100006_0000001_0_0001 (protein)", "chain": "SSSSDMKEYAELALRFVRWLQEAGSEENLRLMLRAAAQVAERANDEEVLRELEEILEELESSSSS"}, "B11": {"name": "il10ra_site1_normal_mot_HHH_b2_04275_000000272_0001_20_36_H_._HHH_b1_02692_0001_0000200018_0000002_1_af2pred_0001 (protein)", "chain": "SSSSDLVHEIFELLRRIAELQNDGNEEEARELIERARELIEEAGNLVFKAALEYLEKLLESSSSS"}, "B12": {"name": "il10ra_site1_normal_mot_HHH_b2_06979_000000158_0001_42_57_H_._HHH_b2_03102_0001_0000100005_0000002_0_af2pred_0001 (protein)", "chain": "SSSSSEEQERLYRLSREAAELLFEGNKEEAQELLEEAEELAKELGNELALVILEFLLKQLGSSSS"}, "B13": {"name": "il10ra_site1_sap_23_mot_HHH_b2_06795_000000133_0001_42_56_H_._HHH_b1_03610_0001_0000100008_0000002_0_0001 (protein)", "chain": "SSSSTETVQEVMRLLRRALELARNGNPEEAQELLEEAEELARENNNILLEFNIEHVLRDLSSSSS"}, "B14": {"name": "il10ra_site1_sap_19_mot_HHH_b1_04015_af2_000000074_0001_1_17_H_._HHH_b2_05711_0001_0000100005_0000001_0_0001_af2pred_0001 (protein)", "chain": "SSSSNEEQRVSELLFRVIELYANGNPEEAEEVLKEAERLAKELGDEELERAVEIAKRFVEASSSS"}, "B15": {"name": "il10ra_site1_normal_mot_65b8060e20531850bca9f2e11f97d954_0001_af2_000000137_0001_17_31_H_._HHH_b2_06425_af2_0001_0000900035_0000001_0_af2pred_0001 (protein)", "chain": "SSSSDERDKETLRHAIRAVEFLLRQGNEELAKLAARFIKADIEDLGDEELREELERVEEEGSSSS"}, "B16": {"name": "il10ra_site1_sap_18_mot_HHH_b2_04327_000000030_0001_41_55_H_._HHH_b2_03484_af2_0001_0000400008_0000001_0_0001_af2pred_0001 (protein)", "chain": "SSSSSSSEEEELMQLAAEISRHASPEEIRRLFELLVRLYHEGDPELKEELRELIEEIKSSSSSSS"}, "B17": {"name": "il10ra_site1_sap_22_mot_2ff9a36852ec7b54996b5ca24e2ac07d_0001_000000066_0001_1_13_H_._7770fb65905d5f0854f63973399109c0_0001_0001_0000200009_0000001_0_0001 (protein)", "chain": "SSSSSQERYEELKRLIEEILRLAWEGNPEEAQEVAEEAEELLRRLGDEYAVRIIESLRRMASSSS"}, "B18": {"name": "il10ra_site1_normal_mot_HHH_b1_03168_000000120_0001_38_55_H_._4c81b332851cb4c2cca13356e2a6c842_0001_0001_0000200014_0000001_0_af2pred_0001 (protein)", "chain": "SAFLLAAVVLALLRNGNPELARKFEEELEELAKTDPEAREALELLEQVKEEGDPELAAKIVELAA"}, "B19": {"name": "il10ra_site1_sap_18_mot_HHH_b2_00597_000000260_0001_41_55_H_._HHH_b1_07547_0001_0000500027_0000001_0_0001_af2pred_0001 (protein)", "chain": "SSSSSSESEELYRLSREAAELLAEGNPEEAREVLEEARELAEEAGDENTLWVIEFLLKLASSSSS"}},
  "note": "Some of the results follow.",
  "data": [
    {"molecular_target": "il10ra, Q13651", "test": "yeast display titration", "values": [
      {"binder": "B1", "apparent Kd": "inactive: no binding seen"},
      {"binder": "B2", "apparent Kd": "inactive: no binding seen"},
      {"binder": "B3", "apparent Kd": "inactive: no binding seen"},
      {"binder": "B4", "apparent Kd": "inactive: no binding seen"},
      {"binder": "B5", "apparent Kd": "inactive: no binding seen"},
      {"binder": "B6", "apparent Kd": "inactive: no binding seen"},
      {"binder": "B7", "apparent Kd": "inactive: no binding seen"},
      {"binder": "B8", "apparent Kd": "inactive: no binding seen"},
      {"binder": "B9", "apparent Kd": "inactive: no binding seen"},
      {"binder": "B10", "apparent Kd": "inactive: no binding seen"},
      {"binder": "B11", "apparent Kd": "inactive: no binding seen"},
      {"binder": "B12", "apparent Kd": "inactive: no binding seen"},
      {"binder": "B13", "apparent Kd": "inactive: no binding seen"},
      {"binder": "B14", "apparent Kd": "inactive: no binding seen"},
      {"binder": "B15", "apparent Kd": "inactive: no binding seen"},
      {"binder": "B16", "apparent Kd": "inactive: no binding seen"},
      {"binder": "B17", "apparent Kd": "inactive: no binding seen"},
      {"binder": "B18", "apparent Kd": "inactive: no binding seen"},
      {"binder": "B19", "apparent Kd": "inactive: no binding seen"}
    ]}
  ]
}
